From paper doi:10.1101/2021.10.07.463531

By UniProt entry, the sequences of proteins in these tests, tags left out. Where a name states a change or a piece, a line headed by the entry shows the natural chain unless it says otherwise.
UniProt Q99MQ1: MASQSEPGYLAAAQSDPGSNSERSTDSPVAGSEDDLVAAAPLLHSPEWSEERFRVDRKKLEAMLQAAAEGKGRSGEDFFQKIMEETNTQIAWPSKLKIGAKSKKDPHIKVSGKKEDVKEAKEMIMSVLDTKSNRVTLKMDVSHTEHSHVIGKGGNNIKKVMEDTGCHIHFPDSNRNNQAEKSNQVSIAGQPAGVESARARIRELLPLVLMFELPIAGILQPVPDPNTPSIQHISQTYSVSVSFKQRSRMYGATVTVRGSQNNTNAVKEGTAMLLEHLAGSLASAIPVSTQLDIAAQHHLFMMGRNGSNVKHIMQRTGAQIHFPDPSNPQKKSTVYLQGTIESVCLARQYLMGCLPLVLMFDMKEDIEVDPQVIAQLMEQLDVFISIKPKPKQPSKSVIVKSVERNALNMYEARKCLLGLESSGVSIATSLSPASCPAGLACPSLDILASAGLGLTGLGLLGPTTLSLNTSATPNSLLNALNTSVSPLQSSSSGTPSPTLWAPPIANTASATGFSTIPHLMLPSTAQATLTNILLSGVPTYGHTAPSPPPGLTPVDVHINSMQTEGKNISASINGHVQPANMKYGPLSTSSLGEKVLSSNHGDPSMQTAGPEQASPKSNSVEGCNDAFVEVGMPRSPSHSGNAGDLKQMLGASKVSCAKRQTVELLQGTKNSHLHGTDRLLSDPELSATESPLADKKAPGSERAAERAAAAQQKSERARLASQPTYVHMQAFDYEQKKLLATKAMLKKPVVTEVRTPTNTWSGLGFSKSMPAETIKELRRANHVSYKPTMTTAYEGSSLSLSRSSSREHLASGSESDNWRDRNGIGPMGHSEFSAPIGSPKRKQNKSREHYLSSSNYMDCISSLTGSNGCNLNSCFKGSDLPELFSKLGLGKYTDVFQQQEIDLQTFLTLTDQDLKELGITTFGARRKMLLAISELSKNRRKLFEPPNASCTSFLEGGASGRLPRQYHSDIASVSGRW

Target: GST-Bicc1-KH (GST fusion of the entire KH tandem repeat of Bicc1) (UniProt Q99MQ1)
Assay: pull-down

binding: binds
B1: v5-ANKS6 (protein, UniProt Q68DC2 1-871)
chain: MGEGGLPPAFQLLLRACDQGDTETARRLLEPGAAEPAERGAEPEAGAEPAGAEVAGPGAAAAGAVGAPVPVDCSDEAGNTALQFAAAGGHEPLVRFLLRRGASVNSRNHYGWSALMQAARFGHVSVAHLLLDHGADVNAQNRLGASVLTVASRGGHLGVVKLLLEAGAFVDHHHPSGEQLGLGGSRDEPLDITALMAAIQHGHEAVVRLLMEWGADPNHAARTVGWSPLMLAALTGRLGVAQQLVEKGANPDHLSVLEKTAFEVALDCKHRDLVDYLDPLTTVRPKTDEEKRRPDIFHALKMGNFQLVKEIADEDPSHVNLVNGDGATPLMLAAVTGQLALVQLLVERHADVDKQDSVHGWTALMQATYHGNKEIVKYLLNQGADVTLRAKNGYTAFDLVMLLNDPDTELVRLLASVCMQVNKDKGRPSHQPPLPHSKVRQPWSIPVLPDDKGGLKSWWNRMSNRFRKLKLMQTLPRGLSSNQPLPFSDEPEPALDSTMRAAPQDKTSRSALPDAAPVTKDNGPGSTRGEKEDTLLTTMLRNGAPLTRLPSDKLKAVIPPFLPPSSFELWSSDRSRTRHNGKADPMKTALPQRASRGHPVGGGGTDTTPVRPVKFPSLPRSPASSANSGNFNHSPHSSGGSSGVGVSRHGGELLNRSGGSIDNVLSQIAAQRKKAAGLLEQKPSHRSSPVGPAPGSSPSELPASPAGGSAPVGKKLETSKRPPSGTSTTSKSTSPTLTPSPSPKGHTAESSVSSSSSHRQSKSSGGSSSGTITDEDELTGILKKLSLEKYQPIFEEQEVDMEAFLTLTDGDLKELGIKTDGSRQQILAAISELNAGKGRERQILQETIHNFHSSFESSASNTRAPGNSPCA

These are yes or no findings as the source states them, for the method shown. Binding seen in cells or lysates may run through a third protein. Binding calls can cover weak binding; strength is not graded here. Tags and fused reporters may be left off the sequences shown.
